# The list is a part of this screen's results and no random one: it is rich in T/C values a quarter to a half above the control, in often repeated tests (any T/C) and in doses without a T/C. Further doses and runs are listed elsewhere. T/C gives the treated animals as a percentage of the vehicle group. Schedule codes are those of the source, read here as Q, the interval in days (D) or hours (H), X, the number of doses. Some T/C values carry the count of animals alive at the toxicity check (mostly the fifth day); without a count, all were alive then. Some doses have a count of surviving animals in place of a T/C: the source files T/C as zero there, which appears to mark a toxic dose or a test without result, not a measured value. Counts of survivors are from the toxicity check (mostly the fifth day) where no day follows; animals may have died later. Some doses were run more than once; their values stand side by side, smallest first.
# System: nude mice, LX-1 lung xenograft intrarenal, tumor weight T/C
# Test: NCI In Vivo Anticancer Drug Screen. Data for tumor model Human Lung LX-1 Xenograft (intrarenal inoculation) in NU/NU Swiss (nude) mice
# Details: T/C endpoint: mean tumor weight change, higher T/C = larger tumour; for T/C: evaluated on day 11
# Summary of the method: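 Tumor-bearing mice receive test compound or vehicle; tumor size is then measured in each group. The treated value is divided by the vehicle value to give T/C.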
# [1] = dose: 32.0 mg/kg/injection, schedule: Q01DX010 (sc), vehicle: saline
# [2] = dose: 100.0 mg/kg/injection, schedule: Q01DX010 (sc), vehicle: saline
compound,measurement,setting,value
COc1cc2c(cc1O)N=C[C@@H]1CCC(O)N1C2=O (mixture of isomers),survivor count,"dose: 16.0 mg/kg/injection, schedule: Q01DX010 (sc), vehicle: saline",3 of 6 on day 11
same,survivor count,[1],0 of 3 on day 11 and 0 of 6 on day 11
COc1cc(NCCCCCCCNC(C)C)c2nccc(C)c2c1,T/C,"dose: 75.0 mg/kg/injection, schedule: Q04DX003 (sc), vehicle: saline",136 % of control [5 of 6 alive on day 11]
same,survivor count,"dose: 300.0 mg/kg/injection, schedule: Q04DX003 (sc), vehicle: saline",0 of 6 on day 11
OCCN1CCN(CCCN2c3ccccc3Sc3ccc(C(F)(F)F)cc32)CC1,T/C,"dose: 5.0 mg/kg/injection, schedule: Q01DX010 (sc), vehicle: saline",138 % of control
same,T/C,"dose: 10.0 mg/kg/injection, schedule: Q01DX010 (sc), vehicle: saline",137 % of control [2 of 2 alive on day 11]
CCC1(O)CC2CN(CCc3c([nH]c4ccccc34)C(C(=O)OC)(c3cc4c(cc3OC)N(C)C3C(O)(C(=O)NCCSSCCNC(=O)C5(O)C(O)C6(CC)C=CCN7CCC8(c9cc(C%10(C(=O)OC)CC%11CN(CCc%12c%10[nH]c%10ccccc%12%10)CC(O)(CC)C%11)c(OC)cc9N(C)C58)C76)C(O)C5(CC)C=CCN6CCC43C65)C2)C1 (stereo not drawn),T/C,"dose: 3.0 mg/kg/injection, schedule: Q04DX003 (sc), vehicle: suspension in saline",132 % of control
C=C1C(=O)O[C@@H]2[C@H](O)[C@@H](C)[C@@H]3C=CC(=O)[C@@]3(C)[C@H](OC(=O)C=C(C)C)[C@H]12,survivor count,"dose: 75.0 mg/kg/injection, schedule: Q04DX003 (sc), vehicle: saline with Tween-80",2 of 6 on day 11
COC1(OC)C2C=CC1CC2,survivor count,"dose: 2400.0 mg/kg/injection, schedule: Q04DX003 (sc), vehicle: saline with Tween-80",0 of 6 on day 11
OCCCN1CCCCC1CO (stereo not drawn),T/C,"dose: 400.0 mg/kg/injection, schedule: Q04DX003 (sc), vehicle: saline",126 % of control
same,T/C,"dose: 800.0 mg/kg/injection, schedule: Q04DX003 (sc), vehicle: saline",149 % of control
same,T/C,"dose: 1600.0 mg/kg/injection, schedule: Q04DX003 (sc), vehicle: saline",135 % of control [5 of 6 alive on day 11]
Cc1c2ccc3ccccc3c2c[n+]2ccccc12,survivor count,"dose: 37.5 mg/kg/injection, schedule: Q04DX003 (sc), vehicle: Klucel (hydroxypropylcellulose) (HPC)",3 of 6 on day 11
CNC(=O)ON(C(C)=O)C(=O)NC,T/C,"dose: 50.0 mg/kg/injection, schedule: Q01DX010 (sc), vehicle: saline",130 % of control
same,survivor count,[2],1 of 2 on day 11
C[PH+](C)C.C[PH+](C)C.[Au],survivor count,"dose: 40.0 mg/kg/injection, schedule: Q04DX003 (sc), vehicle: suspension in saline",0 of 6 on day 11
CCC(C)Nc1ccc(N)cc1 (stereo not drawn),survivor count,"dose: 36.0 mg/kg/injection, schedule: Q04DX003 (sc), vehicle: Klucel (hydroxypropylcellulose) (HPC)",1 of 6 on day 11
same,survivor count,"dose: 72.0 mg/kg/injection, schedule: Q04DX003 (sc), vehicle: Klucel (hydroxypropylcellulose) (HPC)",0 of 6 on day 11
COC1=C(OC)C(=O)C(Sc2ccc3ccccc3c2)=CC1=O,T/C,"dose: 37.5 mg/kg/injection, schedule: Q04DX003 (sc), vehicle: saline with Tween-80",125 % of control
COc1cc([C@@H]2c3cc4c(cc3[C@@H](OC3OC5COC(C)OC5C(O)C3O)[C@H]3COC(=O)[C@H]23)OCO4)cc(OC)c1O (stereo partly drawn),survivor count,[1],0 of 3 on day 11
same,survivor count,"dose: 64.0 mg/kg/injection, schedule: Q01DX010 (sc), vehicle: saline",0 of 3 on day 11
CCN(CC)CCC(=O)c1ccccc1,T/C,"dose: 300.0 mg/kg/injection, schedule: Q04DX003 (sc), vehicle: saline with Tween-80",133 % of control [5 of 6 alive on day 11]
same,survivor count,"dose: 600.0 mg/kg/injection, schedule: Q04DX003 (sc), vehicle: saline with Tween-80",2 of 6 on day 11
same,survivor count,"dose: 1200.0 mg/kg/injection, schedule: Q04DX003 (sc), vehicle: saline with Tween-80",0 of 6 on day 11
C=CS(=O)(=O)c1ccccc1,survivor count,"dose: 200.0 mg/kg/injection, schedule: Q01DX010 (sc), vehicle: saline",0 of 3 on day 11
C[C@H](N)C(=O)N[C@@H]1[C@H]2C(=C(O)C[C@@H](O)[C@@H]2O)C(=O)O[C@]1(C)C(Cl)Cl,survivor count,"dose: 12.0 mg/kg/injection, schedule: Q04DX003 (sc), vehicle: Klucel (hydroxypropylcellulose) (HPC)",0 of 6 on day 11
OCC1OC(n2cnc3c(Cl)ncnc32)C(O)C1O (stereo not drawn),T/C,[2],125 % of control
Cc1ccc(N)c(N)c1,survivor count,"dose: 1600.0 mg/kg/injection, schedule: Q04DX003 (sc), vehicle: saline with Tween-80",0 of 6 on day 11
